The numbers were not newly measured in patent US20020016293A1 (priority 2000, published 2002), which cites them from elsewhere.

Counter-ions that a name gives are not always drawn. Like-named read-outs stand apart in the source and are kept apart here. Bounds are passed on as bounds.

The conditions of this series: cited from earlier work.

As to `CCCCCCC(=O)OCCN1CCN(CCCN2c3ccccc3Sc3ccc(C(F)(F)F)cc32)CC1` [Fluphenazine enanthate], the duration of action result was “about 2 wk” (intramuscular or subcutaneous) and 2 wk (intramuscular or subcutaneous, listed as enanthate salt).
Take `CCCCCCCCCC(=O)OCCN1CCN(CCCN2c3ccccc3Sc3ccc(C(F)(F)F)cc32)CC1` [Fluphenazine decanoate]: the duration of action result (intramuscular or subcutaneous) is reported as “about 4 wk”.
As for `OCCN1CCN(CCCN2c3ccccc3Sc3ccc(C(F)(F)F)cc32)CC1` [Fluphenazine hydrochloride], the onset of action (hydrochloride: oral or intramuscular, enanthate: after injection) was at most 1 h. Also, the duration of action (oral or intramuscular) is 6 h.
